From article PMC3796546
No constants are given. Whether binding was seen depends on the method and setting. Binding seen in cells or lysates may run through a third protein. Some binding calls cover weakened binding; strength is not graded here.

Amino acid sequences for entries named in this document (tags omitted).
UniProt P25694: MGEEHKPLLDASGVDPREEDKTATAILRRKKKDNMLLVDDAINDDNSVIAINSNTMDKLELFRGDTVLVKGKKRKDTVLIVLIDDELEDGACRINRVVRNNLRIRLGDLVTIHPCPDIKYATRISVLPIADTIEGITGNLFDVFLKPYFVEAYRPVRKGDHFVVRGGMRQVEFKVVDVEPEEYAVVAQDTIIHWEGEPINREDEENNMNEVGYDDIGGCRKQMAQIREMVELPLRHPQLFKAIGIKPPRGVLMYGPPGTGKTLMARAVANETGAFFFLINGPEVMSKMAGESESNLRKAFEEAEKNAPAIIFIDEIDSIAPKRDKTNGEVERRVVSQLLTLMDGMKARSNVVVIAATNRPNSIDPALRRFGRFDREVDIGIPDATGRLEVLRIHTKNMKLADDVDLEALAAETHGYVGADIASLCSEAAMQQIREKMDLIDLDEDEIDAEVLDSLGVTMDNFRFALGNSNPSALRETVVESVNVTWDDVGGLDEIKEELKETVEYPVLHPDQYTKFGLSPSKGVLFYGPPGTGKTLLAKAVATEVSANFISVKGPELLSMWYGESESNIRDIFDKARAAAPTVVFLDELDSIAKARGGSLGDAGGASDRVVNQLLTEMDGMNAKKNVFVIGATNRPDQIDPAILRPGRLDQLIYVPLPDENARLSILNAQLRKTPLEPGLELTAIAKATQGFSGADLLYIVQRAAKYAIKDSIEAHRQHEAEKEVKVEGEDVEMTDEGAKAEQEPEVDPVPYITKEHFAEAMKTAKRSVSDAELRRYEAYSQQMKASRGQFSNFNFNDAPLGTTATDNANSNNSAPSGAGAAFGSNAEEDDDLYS

Columns and labels:
Assay in all cases: co-IP; yeast crude extract in RNP buffer (0.1 M HEPES pH 7.4, 100 mM NaCl, 0.1% NP-40) on anti-HA agarose beads, 4°C, 90 minutes; HA-Irc20 derivatives precipitated, Cdc48–3xMyc detected by anti-MYC western blot
[1] = molecular target: T1, 3xHA-Irc20 (a.a. 584–1238) (S. cerevisiae) (UniProt Q06554)
T1 sequence: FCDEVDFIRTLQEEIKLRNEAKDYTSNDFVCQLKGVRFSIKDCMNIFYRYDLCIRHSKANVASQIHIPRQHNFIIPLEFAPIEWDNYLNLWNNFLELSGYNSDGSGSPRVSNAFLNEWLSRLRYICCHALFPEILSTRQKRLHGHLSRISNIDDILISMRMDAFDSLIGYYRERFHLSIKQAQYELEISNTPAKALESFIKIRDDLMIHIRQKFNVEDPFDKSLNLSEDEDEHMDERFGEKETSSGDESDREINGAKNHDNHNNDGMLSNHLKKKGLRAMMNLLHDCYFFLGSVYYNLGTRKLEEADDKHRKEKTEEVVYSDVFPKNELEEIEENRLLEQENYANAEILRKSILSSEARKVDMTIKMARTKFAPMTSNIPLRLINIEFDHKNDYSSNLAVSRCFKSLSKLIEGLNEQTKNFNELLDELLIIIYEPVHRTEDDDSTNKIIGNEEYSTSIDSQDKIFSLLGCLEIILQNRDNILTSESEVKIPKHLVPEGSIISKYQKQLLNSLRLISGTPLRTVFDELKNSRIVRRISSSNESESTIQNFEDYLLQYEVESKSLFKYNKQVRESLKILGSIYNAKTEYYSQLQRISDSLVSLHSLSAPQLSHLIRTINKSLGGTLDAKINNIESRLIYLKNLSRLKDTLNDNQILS

[2] = molecular target: T2, 3xHA-Irc20 (a.a. 883–1033) (S. cerevisiae) (UniProt Q06554)
T2 sequence: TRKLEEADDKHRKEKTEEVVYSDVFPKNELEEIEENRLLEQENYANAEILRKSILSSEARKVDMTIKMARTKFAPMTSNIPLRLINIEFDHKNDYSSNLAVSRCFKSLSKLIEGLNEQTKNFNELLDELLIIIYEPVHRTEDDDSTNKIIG

[3] = molecular target: T3, 3xHA-irc20 (Δ883–1033) (S. cerevisiae) (UniProt Q06554)
T3 sequence: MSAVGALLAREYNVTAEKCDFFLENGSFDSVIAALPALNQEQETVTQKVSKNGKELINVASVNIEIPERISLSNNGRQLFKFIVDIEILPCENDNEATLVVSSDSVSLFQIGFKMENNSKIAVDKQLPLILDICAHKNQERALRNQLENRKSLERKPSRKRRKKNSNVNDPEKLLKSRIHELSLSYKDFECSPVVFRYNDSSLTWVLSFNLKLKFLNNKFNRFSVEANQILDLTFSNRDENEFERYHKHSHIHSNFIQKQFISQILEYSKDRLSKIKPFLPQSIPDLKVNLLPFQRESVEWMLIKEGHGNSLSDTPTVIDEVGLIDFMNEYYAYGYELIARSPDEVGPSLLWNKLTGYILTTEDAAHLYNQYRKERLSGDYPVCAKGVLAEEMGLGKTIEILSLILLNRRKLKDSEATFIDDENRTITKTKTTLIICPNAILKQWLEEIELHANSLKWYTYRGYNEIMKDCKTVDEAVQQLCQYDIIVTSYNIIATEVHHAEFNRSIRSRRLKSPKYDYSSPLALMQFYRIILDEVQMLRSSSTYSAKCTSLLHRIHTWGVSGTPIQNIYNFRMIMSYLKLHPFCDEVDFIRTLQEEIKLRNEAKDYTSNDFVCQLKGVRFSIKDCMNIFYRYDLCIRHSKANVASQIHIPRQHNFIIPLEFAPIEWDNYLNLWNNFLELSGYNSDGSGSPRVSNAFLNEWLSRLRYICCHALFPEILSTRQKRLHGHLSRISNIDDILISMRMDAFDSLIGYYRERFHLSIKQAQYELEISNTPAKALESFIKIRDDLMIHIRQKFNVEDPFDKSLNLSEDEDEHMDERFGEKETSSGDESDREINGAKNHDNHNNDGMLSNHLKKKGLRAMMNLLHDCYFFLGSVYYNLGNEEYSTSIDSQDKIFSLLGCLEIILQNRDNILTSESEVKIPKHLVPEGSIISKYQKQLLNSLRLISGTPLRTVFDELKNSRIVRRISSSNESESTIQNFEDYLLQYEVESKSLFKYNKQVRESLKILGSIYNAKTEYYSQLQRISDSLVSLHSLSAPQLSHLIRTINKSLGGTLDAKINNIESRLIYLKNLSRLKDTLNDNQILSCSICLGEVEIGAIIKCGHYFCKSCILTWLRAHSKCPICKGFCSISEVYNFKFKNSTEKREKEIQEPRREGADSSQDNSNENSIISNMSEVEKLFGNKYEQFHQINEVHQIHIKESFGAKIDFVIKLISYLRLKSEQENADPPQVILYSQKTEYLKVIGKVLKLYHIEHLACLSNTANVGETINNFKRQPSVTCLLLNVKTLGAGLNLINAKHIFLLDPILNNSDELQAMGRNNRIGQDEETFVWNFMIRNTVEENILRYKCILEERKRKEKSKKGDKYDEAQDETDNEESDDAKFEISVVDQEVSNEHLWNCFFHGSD

binding [1]: binds | binding [2]: binds | binding [3]: binds
Substance: Cdc48–3xMyc (from UniProt P25694 1-835)
